Measurements taken from patent US9269550B2, “Mass spectrometric methods for quantifying NPY 1-36 and NPY 3-36” (Georgetown University, priority 2010, dated 2016).

Assay: Free NPY in human plasma of healthy normals by HPLC-QTOF-MS
Settings: human plasma ultrafiltrate (free peptide), healthy normal subjects, preliminary data

Row | Substance | values (reference intervals) for healthy normals [ng/mL]
1 | NPY 1-36: 36-amino acid peptide neurotransmitter found in the brain and autonomic nervous system | 0.23 to 0.67
2 | NPY 3-36: 34-amino acid peptide fragment formed by dipeptidyl peptidase IV (DPPIV) cleavage of NPY 1-36 | 0.19 to 0.65
